Some of the results follow.
Key:
Assay in all cases: log2 fold change, soluble protein after heating vs DMSO (PISA); higher = thermal stabilisation; K562 cells, 10 uM, 30 min; active = over 0.2 and 3.5 SD of the protein, either way, in both replicates (recomputed)
[1] = compound: CC[C@@H]1C(=O)N(C)c2cnc(Nc3ccc(C(=O)NC4CCN(C)CC4)cc3OC)nc2N1C1CCCC1
Summary of the method: (§1)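 Soluble protein was defined as the supernatant after 21,000xg for 90 min. It came from K562 cells at 2×10^6 cells/mL given 10 μM compound for 30 min, heated in aliquots for 3 min across 48°C-58°C, pooled, and extracted in PBS with 0.5% NP-40 at 4°C, and was quantified by TMTpro 16plex LC-MS/MS with equalised channel sums. Thermal stability against control samples, from duplicates, is reported as log2 fold change.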

Protein sequences, listed by entry. Tags and fused reporters are not part of them. Lines headed by an entry give the natural chain unless they say otherwise; changes in a name come on top.
UniProt Q9BZK7: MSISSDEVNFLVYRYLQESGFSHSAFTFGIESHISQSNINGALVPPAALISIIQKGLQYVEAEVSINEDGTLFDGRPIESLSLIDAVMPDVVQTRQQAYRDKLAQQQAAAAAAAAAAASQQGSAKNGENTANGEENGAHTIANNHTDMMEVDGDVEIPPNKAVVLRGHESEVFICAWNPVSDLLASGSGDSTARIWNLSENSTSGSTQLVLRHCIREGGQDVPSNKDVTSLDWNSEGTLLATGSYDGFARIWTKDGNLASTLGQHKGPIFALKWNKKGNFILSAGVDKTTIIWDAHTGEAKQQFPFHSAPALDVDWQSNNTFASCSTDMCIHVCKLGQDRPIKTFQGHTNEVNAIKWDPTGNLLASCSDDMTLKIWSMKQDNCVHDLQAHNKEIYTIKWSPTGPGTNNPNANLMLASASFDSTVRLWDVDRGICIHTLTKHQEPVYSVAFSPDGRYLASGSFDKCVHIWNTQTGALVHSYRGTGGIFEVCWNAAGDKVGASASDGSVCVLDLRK
UniProt Q8WUA7: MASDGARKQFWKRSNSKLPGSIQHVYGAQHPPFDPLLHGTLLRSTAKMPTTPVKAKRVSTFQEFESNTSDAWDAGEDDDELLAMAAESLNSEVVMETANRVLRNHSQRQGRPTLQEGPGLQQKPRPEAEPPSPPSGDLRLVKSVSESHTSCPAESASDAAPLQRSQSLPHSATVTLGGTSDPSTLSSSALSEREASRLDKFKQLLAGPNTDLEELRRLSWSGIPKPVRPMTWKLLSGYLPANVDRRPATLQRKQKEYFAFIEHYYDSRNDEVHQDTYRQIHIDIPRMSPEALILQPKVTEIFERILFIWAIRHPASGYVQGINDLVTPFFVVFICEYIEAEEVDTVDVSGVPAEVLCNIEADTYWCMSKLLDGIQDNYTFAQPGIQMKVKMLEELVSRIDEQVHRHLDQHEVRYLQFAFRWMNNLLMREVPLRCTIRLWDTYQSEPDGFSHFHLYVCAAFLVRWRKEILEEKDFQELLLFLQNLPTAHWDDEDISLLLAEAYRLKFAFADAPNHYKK
UniProt Q9BV44: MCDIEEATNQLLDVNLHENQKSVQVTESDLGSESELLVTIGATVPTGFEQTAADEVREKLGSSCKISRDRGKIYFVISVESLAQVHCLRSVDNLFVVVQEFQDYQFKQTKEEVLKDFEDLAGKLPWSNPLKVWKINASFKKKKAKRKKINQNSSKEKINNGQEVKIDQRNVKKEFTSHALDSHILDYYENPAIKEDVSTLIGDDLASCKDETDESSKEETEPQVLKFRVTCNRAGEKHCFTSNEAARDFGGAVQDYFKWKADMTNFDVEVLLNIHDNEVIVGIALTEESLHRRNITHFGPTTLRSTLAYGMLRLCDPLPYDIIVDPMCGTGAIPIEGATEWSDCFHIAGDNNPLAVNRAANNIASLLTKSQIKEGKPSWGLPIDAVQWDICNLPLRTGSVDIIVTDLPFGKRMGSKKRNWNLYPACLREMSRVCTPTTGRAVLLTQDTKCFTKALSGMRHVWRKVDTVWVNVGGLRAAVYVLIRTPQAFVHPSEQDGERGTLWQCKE
UniProt Q3LXA3: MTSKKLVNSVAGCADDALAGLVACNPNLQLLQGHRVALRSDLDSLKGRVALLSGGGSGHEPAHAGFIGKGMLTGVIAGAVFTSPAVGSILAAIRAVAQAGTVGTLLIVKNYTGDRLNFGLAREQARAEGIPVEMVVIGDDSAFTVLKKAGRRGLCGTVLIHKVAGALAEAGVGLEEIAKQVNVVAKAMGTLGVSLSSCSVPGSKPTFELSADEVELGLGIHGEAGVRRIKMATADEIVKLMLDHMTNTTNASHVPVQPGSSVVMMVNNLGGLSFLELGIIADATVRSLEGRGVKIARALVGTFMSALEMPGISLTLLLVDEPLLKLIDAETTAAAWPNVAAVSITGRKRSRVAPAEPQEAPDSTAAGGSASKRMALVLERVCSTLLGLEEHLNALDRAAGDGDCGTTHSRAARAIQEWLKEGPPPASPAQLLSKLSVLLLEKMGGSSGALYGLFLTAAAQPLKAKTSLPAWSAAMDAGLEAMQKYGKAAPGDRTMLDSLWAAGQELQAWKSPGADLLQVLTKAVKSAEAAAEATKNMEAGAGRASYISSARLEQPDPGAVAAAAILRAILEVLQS
UniProt O75347: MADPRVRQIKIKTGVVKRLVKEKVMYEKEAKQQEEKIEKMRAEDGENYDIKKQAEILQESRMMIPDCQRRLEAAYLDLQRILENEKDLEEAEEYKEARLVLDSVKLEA
UniProt Q9BTF0: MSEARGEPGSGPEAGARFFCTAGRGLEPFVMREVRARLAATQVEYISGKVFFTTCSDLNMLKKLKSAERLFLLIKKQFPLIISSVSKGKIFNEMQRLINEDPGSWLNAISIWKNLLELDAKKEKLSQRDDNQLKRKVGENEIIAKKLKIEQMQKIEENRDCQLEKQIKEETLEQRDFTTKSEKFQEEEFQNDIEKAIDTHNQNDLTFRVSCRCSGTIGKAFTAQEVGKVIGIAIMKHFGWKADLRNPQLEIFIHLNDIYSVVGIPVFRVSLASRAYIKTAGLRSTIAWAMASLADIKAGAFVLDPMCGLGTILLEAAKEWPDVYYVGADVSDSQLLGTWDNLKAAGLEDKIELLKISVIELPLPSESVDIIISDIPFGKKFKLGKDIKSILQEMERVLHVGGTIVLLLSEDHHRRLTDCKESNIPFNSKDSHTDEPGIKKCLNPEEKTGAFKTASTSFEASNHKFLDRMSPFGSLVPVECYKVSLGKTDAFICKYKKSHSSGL
UniProt Q99595: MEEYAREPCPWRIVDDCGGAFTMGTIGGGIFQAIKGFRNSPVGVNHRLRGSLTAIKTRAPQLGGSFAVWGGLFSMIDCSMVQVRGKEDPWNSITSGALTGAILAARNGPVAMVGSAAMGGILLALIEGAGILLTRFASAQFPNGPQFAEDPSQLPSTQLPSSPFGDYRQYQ
UniProt Q9NXG2: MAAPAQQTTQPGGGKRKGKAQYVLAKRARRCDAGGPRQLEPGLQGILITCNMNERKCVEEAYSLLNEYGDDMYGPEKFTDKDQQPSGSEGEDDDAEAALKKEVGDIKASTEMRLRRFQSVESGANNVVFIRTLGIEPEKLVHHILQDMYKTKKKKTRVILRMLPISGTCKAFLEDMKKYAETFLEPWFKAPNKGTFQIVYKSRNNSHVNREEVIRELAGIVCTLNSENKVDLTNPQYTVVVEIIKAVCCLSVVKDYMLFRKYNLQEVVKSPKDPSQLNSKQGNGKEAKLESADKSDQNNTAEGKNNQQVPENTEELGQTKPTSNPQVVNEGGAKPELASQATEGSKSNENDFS
UniProt O60830: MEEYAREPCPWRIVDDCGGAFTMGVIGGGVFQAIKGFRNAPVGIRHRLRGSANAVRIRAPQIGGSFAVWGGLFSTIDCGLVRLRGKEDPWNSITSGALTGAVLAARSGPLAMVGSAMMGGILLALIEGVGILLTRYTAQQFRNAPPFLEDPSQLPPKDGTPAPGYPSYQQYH
UniProt Q9BVW5: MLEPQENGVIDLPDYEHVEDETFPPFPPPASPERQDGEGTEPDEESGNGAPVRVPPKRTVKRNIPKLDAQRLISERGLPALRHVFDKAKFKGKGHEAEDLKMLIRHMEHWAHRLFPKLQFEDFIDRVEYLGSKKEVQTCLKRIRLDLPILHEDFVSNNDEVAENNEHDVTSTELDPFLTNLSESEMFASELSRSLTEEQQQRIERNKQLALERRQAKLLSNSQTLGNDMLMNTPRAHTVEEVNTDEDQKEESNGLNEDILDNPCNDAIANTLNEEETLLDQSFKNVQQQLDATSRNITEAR
UniProt Q9NU19: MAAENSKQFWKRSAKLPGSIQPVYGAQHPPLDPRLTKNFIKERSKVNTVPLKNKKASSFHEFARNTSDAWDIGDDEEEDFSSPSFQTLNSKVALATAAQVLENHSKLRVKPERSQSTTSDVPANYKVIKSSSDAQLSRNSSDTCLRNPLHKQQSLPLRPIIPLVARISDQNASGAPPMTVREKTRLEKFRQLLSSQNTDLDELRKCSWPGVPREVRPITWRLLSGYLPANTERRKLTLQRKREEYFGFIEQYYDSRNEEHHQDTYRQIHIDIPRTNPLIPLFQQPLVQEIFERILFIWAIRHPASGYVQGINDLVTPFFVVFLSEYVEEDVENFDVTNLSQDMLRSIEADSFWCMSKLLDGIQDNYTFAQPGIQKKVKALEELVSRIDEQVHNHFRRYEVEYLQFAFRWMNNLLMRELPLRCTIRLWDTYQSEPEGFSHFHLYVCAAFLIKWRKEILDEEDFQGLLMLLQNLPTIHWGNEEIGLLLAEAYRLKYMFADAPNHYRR
UniProt Q96FV9: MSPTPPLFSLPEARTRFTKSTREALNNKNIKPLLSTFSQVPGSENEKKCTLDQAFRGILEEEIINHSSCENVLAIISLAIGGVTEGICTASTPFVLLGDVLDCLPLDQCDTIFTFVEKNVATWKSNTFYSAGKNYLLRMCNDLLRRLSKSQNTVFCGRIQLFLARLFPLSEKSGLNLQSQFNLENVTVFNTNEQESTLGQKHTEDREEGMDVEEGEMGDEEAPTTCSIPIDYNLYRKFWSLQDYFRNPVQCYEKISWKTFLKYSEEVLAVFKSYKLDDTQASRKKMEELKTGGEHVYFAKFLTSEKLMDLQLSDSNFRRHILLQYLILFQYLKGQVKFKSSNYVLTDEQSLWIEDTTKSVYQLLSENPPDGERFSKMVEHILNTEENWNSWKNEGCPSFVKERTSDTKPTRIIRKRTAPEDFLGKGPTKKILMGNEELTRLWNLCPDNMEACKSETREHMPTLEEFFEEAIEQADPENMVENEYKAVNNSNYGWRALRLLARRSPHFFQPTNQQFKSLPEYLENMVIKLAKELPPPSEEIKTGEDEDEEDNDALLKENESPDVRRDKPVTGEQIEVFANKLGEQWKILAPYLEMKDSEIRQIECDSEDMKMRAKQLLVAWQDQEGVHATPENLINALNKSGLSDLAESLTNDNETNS
UniProt P52888, whole entry, looked up: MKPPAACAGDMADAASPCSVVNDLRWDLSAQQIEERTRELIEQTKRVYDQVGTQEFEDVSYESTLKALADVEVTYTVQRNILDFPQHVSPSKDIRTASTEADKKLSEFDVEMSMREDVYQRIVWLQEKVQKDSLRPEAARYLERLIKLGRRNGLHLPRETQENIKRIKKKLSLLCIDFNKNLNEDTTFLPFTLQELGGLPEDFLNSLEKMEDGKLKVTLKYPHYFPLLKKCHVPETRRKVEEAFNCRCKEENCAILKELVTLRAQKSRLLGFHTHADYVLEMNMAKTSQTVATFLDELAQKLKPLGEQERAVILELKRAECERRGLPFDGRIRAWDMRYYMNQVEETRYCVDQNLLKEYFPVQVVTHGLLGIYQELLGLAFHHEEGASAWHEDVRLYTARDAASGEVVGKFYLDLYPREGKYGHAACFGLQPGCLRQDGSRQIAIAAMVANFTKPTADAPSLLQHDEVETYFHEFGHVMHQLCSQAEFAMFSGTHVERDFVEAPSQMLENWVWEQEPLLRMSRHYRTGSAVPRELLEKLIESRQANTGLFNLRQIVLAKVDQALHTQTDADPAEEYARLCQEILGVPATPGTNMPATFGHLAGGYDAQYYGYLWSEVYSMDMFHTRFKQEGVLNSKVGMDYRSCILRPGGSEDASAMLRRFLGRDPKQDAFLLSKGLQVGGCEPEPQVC
UniProt O95551: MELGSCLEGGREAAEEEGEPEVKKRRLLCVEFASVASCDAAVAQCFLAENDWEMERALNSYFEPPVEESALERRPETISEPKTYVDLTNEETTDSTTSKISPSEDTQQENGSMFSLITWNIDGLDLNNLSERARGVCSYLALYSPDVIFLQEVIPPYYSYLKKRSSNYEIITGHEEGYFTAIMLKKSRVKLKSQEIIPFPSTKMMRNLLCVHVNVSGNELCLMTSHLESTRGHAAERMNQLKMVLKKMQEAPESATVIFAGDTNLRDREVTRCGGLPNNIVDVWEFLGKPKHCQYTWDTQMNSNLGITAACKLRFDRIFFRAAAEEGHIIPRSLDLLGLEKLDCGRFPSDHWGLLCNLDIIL
UniProt P15923: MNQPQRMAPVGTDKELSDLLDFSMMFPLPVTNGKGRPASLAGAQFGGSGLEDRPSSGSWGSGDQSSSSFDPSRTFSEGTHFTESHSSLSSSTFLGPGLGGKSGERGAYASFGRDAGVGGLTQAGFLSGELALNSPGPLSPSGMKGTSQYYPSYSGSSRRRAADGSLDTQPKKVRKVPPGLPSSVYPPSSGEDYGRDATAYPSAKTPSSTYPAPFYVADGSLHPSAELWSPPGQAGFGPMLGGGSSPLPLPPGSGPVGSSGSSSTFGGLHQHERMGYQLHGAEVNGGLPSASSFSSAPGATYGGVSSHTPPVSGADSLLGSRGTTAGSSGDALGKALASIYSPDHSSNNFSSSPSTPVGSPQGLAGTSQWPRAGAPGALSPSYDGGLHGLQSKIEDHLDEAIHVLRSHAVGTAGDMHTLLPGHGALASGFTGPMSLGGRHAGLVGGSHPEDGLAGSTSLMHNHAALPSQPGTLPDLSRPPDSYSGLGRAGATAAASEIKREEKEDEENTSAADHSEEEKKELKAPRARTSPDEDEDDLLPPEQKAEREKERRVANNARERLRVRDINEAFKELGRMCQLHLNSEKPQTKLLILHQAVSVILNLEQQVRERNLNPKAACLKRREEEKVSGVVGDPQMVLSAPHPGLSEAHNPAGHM

volasertib = compound: CC[C@@H]1C(=O)N(C)c2cnc(Nc3ccc(C(=O)N[C@H]4CC[C@H](N5CCN(CC6CC6)CC5)CC4)cc3OC)nc2N1C(C)C [volasertib]
Summary of the method: as §1

[2] = compound: CC[C@H](C)N1C=C(C2=C(C=C(C=C21)C3=CN=C(C=C3)N4CCNCC4)C(=O)NCC5=C(C=C(NC5=O)C)C)C
Summary of the method: as §1

epoxomicin = compound: CC[C@H](C)[C@@H](C(=O)N[C@@H]([C@@H](C)O)C(=O)N[C@@H](CC(C)C)C(=O)[C@]1(CO1)C)NC(=O)[C@H]([C@@H](C)CC)N(C)C(=O)C [epoxomicin]
Summary of the method: as §1

[3] = compound: CCn1c(C(=O)N(C2CC2)C2CC2)cc2c3c(ncn3C)c(Nc3cc(C)n(C)n3)nc21
Summary of the method: as §1

[4] = compound: CCn1cc(-c2ccnc3[nH]c(-c4cccc(CN(C)C)c4)cc23)c(-c2ccc(NC(=O)N(C)C)cc2)n1
Summary of the method: as §1

[5] = compound: CN(C)CC(=O)Nc1ccc2[nH]c(=O)c3ccccc3c2c1
Summary of the method: as §1

rosiglitazone = compound: CN(CCOC1=CC=C(C=C1)C[C@H]2C(=O)NC(=O)S2)C3=CC=CC=N3 (racemic) [rosiglitazone]
Summary of the method: as §1

[6] = compound: CN1C2=C(C3=C1C(=O)N(N=C3)CC4=CC(=CC=C4)N)SC(=C2)S(=O)C
Summary of the method: as §1

[7] = compound: CN1CCC(CNc2ccc3ncc(-c4cccc(OC(F)(F)F)c4)n3n2)CC1
Summary of the method: as §1

saracatinib = compound: CN1CCN(CCOc2cc(OC3CCOCC3)c3c(Nc4c(Cl)ccc5c4OCO5)ncnc3c2)CC1 [saracatinib]
Summary of the method: as §1

sotrastaurin = compound: CN1CCN(c2nc(C3=C(c4c[nH]c5ccccc45)C(=O)NC3=O)c3ccccc3n2)CC1 [sotrastaurin]
Summary of the method: as §1

alvocidib = compound: CN1CC[C@H](c2c(O)cc(O)c3c(=O)cc(-c4ccccc4Cl)oc23)[C@H](O)C1 [alvocidib]
Summary of the method: as §1

Tubastatin A = compound: CN1CCc2c(c3ccccc3n2Cc2ccc(C(=O)NO)cc2)C1 [Tubastatin A]
Summary of the method: as §1

[8] = compound: CNC(=O)C1=CC=CC=C1NC2=NC(=NC=C2Cl)NC3=C(C=C(C=C3)N4CCOCC4)OC
Summary of the method: as §1

defactinib = compound: CNC(=O)c1ccc(Nc2ncc(C(F)(F)F)c(NCc3nccnc3N(C)S(C)(=O)=O)n2)cc1 [defactinib]
Summary of the method: as §1

rucaparib = compound: CNCc1ccc(-c2[nH]c3cc(F)cc4c3c2CCNC4=O)cc1 [rucaparib]
Summary of the method: as §1

[9] = compound: CNc1nc(-c2ccc3c(N)n[nH]c3c2)cc(N2C[C@@H](C(=O)NC3CCCCC3)CC[C@H]2C)n1
Summary of the method: as §1

encorafenib = compound: COC(=O)N[C@@H](C)CNc1nccc(-c2cn(C(C)C)nc2-c2cc(Cl)cc(NS(C)(=O)=O)c2F)n1 [encorafenib]
Summary of the method: as §1

[10] = compound: COC(=O)[C@H](CCSC)NC(=O)C1=C(C=C(C=C1)NC[C@H](CS)N)C2=CC=CC=C2
Summary of the method: as §1

Measured: log2 fold change

TBL1XR1 (UniProt Q9BZK7)
inactive: [1] 0.075 | volasertib 0.01 | [2] 0.024 | epoxomicin 0.044 | [3] 0.019 | [4] -0.066 | [5] -0.022 | rosiglitazone 0.035 | [6] -0.009 | [7] -0.014 | saracatinib 0.029 | sotrastaurin -0.006 | alvocidib -0.024 | Tubastatin A -0.01 | [8] -0.075 | defactinib 0.006 | rucaparib -0.023 | [9] -0.066 | encorafenib 0.028 | [10] -0.002

TBC1D22A (UniProt Q8WUA7)
inactive: [1] 0.022 | volasertib -0.086 | [2] 0 | epoxomicin -0.014 | [3] -0.005 | [4] -0.022 | [5] -0.01 | rosiglitazone 0.025 | [6] -0.093 | [7] -0.014 | saracatinib 0.006 | sotrastaurin -0.025 | alvocidib -0.016 | Tubastatin A 0.029 | [8] -0.044 | defactinib -0.046 | rucaparib -0.046 | [9] -0.06 | encorafenib -0.004 | [10] -0.053

TBCE (UniProt Q15813)
inactive: [1] -0.005 | volasertib -0.254 | [2] 0.133 | epoxomicin -0.062 | [3] -0.045 | [4] 0.028 | [5] 0.109 | rosiglitazone 0.037 | [6] 0.129 | [7] -0.067 | saracatinib -0.066 | sotrastaurin -0.265 | alvocidib 0.02 | Tubastatin A 0.129 | [8] -0.012 | defactinib -0.035 | rucaparib 0.331 | [9] 0.057 | encorafenib 0.131 | [10] -0.116

THUMPD3 (UniProt Q9BV44)
inactive: [1] -0.035 | volasertib -0.062 | [2] 0.03 | epoxomicin 0.038 | [3] 0 | [4] -0.049 | [5] 0.026 | rosiglitazone -0.003 | [6] -0.049 | [7] -0.094 | saracatinib 0 | sotrastaurin -0.054 | alvocidib -0.062 | Tubastatin A -0.045 | [8] -0.016 | defactinib -0.088 | rucaparib 0.011 | [9] 0.019 | encorafenib -0.009 | [10] -0.028

TKFC (UniProt Q3LXA3)
inactive: [1] 0.03 | volasertib -0.023 | [2] -0.007 | epoxomicin -0.01 | [3] 0.018 | [4] 0.001 | [5] -0.025 | rosiglitazone 0.019 | [6] -0.068 | [7] -0.036 | saracatinib 0.007 | sotrastaurin 0.034 | alvocidib -0.012 | Tubastatin A -0.025 | [8] -0.042 | defactinib -0.03 | rucaparib -0.055 | [9] -0.052 | encorafenib -0.021 | [10] 0.005

TBCA (UniProt O75347)
inactive: [1] -0.019 | volasertib 0.123 | [2] -0.062 | epoxomicin -0.022 | [3] 0.028 | [4] 0.009 | [5] -0.053 | rosiglitazone -0.001 | [6] -0.054 | [7] -0.017 | saracatinib 0.023 | sotrastaurin 0.063 | alvocidib -0.002 | Tubastatin A -0.034 | [8] -0.001 | defactinib -0.013 | rucaparib -0.01 | [9] 0 | encorafenib -0.038 | [10] 0.029

THUMPD2 (UniProt Q9BTF0)
inactive: [1] 0.094 | volasertib 0.006 | [2] 0.049 | epoxomicin -0.032 | [3] -0.012 | [4] 0.145 | [5] -0.029 | rosiglitazone -0.043 | [6] 0.029 | [7] 0.039 | saracatinib 0.16 | sotrastaurin 0.008 | alvocidib 0.058 | Tubastatin A -0.023 | [8] 0.032 | defactinib -0.06 | rucaparib 0.1 | [9] 0.031 | encorafenib 0.016 | [10] 0.009

TIMM17A (UniProt Q99595)
inactive: [1] 0.051 | volasertib 0.088 | [2] -0.084 | epoxomicin 0.009 | [3] -0.033 | [4] 0.05 | [5] -0.029 | rosiglitazone -0.045 | [6] -0.05 | [7] 0.009 | saracatinib 0.047 | sotrastaurin 0.012 | alvocidib 0.007 | Tubastatin A 0 | [8] -0.019 | defactinib 0.002 | rucaparib -0.038 | [9] -0.037 | encorafenib 0.006 | [10] 0.062

THUMPD1 (UniProt Q9NXG2)
inactive: [1] -0.043 | volasertib -0.055 | [2] -0.001 | epoxomicin 0.014 | [3] 0.019 | [4] -0.001 | [5] 0.017 | rosiglitazone 0.022 | [6] -0.037 | [7] -0.034 | saracatinib 0.003 | sotrastaurin -0.006 | alvocidib -0.017 | Tubastatin A -0.029 | [8] 0 | defactinib -0.022 | rucaparib -0.062 | [9] -0.064 | encorafenib 0.007 | [10] 0.022

TIMM17B (UniProt O60830)
inactive: [1] 0.01 | volasertib 0.046 | [2] -0.029 | epoxomicin -0.029 | [3] 0.042 | [4] -0.02 | [5] -0.129 | rosiglitazone -0.045 | [6] -0.064 | [7] 0.009 | saracatinib 0.032 | sotrastaurin 0.019 | alvocidib 0.002 | Tubastatin A -0.092 | [8] 0.013 | defactinib 0.023 | rucaparib -0.023 | [9] -0.066 | encorafenib -0.007 | [10] 0.072

TIPIN (UniProt Q9BVW5)
inactive: [1] 0.075 | volasertib -0.002 | [2] 0.01 | epoxomicin 0.042 | [3] 0.001 | [4] 0.025 | [5] 0.017 | rosiglitazone 0.021 | [6] -0.046 | [7] -0.048 | saracatinib 0.079 | sotrastaurin -0.031 | alvocidib 0.028 | Tubastatin A 0.042 | [8] 0.011 | defactinib -0.047 | rucaparib -0.034 | [9] -0.034 | encorafenib 0.064 | [10] 0.056

TBC1D22B (UniProt Q9NU19)
inactive: [1] -0.1 | volasertib -0.3 | [2] 0.047 | epoxomicin 0.078 | [3] -0.031 | [4] -0.036 | [5] 0.034 | rosiglitazone 0.026 | [6] 0.004 | [7] -0.113 | saracatinib 0.078 | sotrastaurin -0.033 | alvocidib -0.144 | Tubastatin A -0.006 | [8] 0.012 | defactinib -0.013 | rucaparib -0.209 | [9] -0.016 | encorafenib 0.225 | [10] -0.01

THOC1 (UniProt Q96FV9)
inactive: [1] -0.034 | volasertib -0.017 | [2] 0.004 | epoxomicin -0.008 | [3] 0.017 | [4] -0.046 | [5] -0.015 | rosiglitazone 0.043 | [6] 0.119 | [7] -0.039 | saracatinib 0.003 | sotrastaurin -0.045 | alvocidib -0.065 | Tubastatin A 0.032 | [8] -0.014 | defactinib -0.001 | rucaparib 0.217 | [9] -0.059 | encorafenib -0.017 | [10] 0.085

THOP1 (UniProt P52888)
inactive: [1] 0.007 | volasertib 0.035 | [2] -0.022 | epoxomicin -0.027 | [3] 0.007 | [4] -0.009 | [5] -0.006 | rosiglitazone 0.01 | [6] -0.058 | [7] -0.039 | saracatinib 0.026 | sotrastaurin 0.031 | alvocidib -0.057 | Tubastatin A 0.028 | [8] -0.036 | defactinib -0.027 | rucaparib -0.022 | [9] -0.035 | encorafenib -0.013 | [10] 0.002

TDP2 isoform 2 (UniProt O95551)
inactive: [1] -0.065 | volasertib -0.026 | [2] 0.016 | epoxomicin 0.068 | [3] 0.034 | [4] -0.074 | [5] -0.026 | rosiglitazone 0.037 | [6] -0.038 | [7] -0.1 | saracatinib -0.01 | sotrastaurin 0.027 | alvocidib -0.093 | Tubastatin A 0.04 | [8] 0.018 | defactinib -0.131 | rucaparib -0.13 | [9] 0.032 | encorafenib 0.026 | [10] 0.03

2 entries picked at random from those above, as already listed:
TBC1D22B (UniProt Q9NU19)
inactive: [1] -0.1 | volasertib -0.3 | [2] 0.047 | epoxomicin 0.078 | [3] -0.031 | [4] -0.036 | [5] 0.034 | rosiglitazone 0.026 | [6] 0.004 | [7] -0.113 | saracatinib 0.078 | sotrastaurin -0.033 | alvocidib -0.144 | Tubastatin A -0.006 | [8] 0.012 | defactinib -0.013 | rucaparib -0.209 | [9] -0.016 | encorafenib 0.225 | [10] -0.01

TIPIN (UniProt Q9BVW5)
inactive: [1] 0.075 | volasertib -0.002 | [2] 0.01 | epoxomicin 0.042 | [3] 0.001 | [4] 0.025 | [5] 0.017 | rosiglitazone 0.021 | [6] -0.046 | [7] -0.048 | saracatinib 0.079 | sotrastaurin -0.031 | alvocidib 0.028 | Tubastatin A 0.042 | [8] 0.011 | defactinib -0.047 | rucaparib -0.034 | [9] -0.034 | encorafenib 0.064 | [10] 0.056

Next part.

TCF3 (UniProt P15923)
inactive: [1] -0.014 | volasertib -0.052 | [2] -0.012 | epoxomicin 0.08 | [3] 0.008 | [4] 0.046 | [5] 0.036 | rosiglitazone 0.027 | [6] 0.016 | [7] -0.044 | saracatinib 0.014 | sotrastaurin -0.007 | alvocidib -0.005 | Tubastatin A 0.014 | [8] -0.04 | defactinib -0.093 | rucaparib 0.078 | [9] -0.046 | encorafenib -0.04 | [10] -0.001

From the supplement of paper PMC10849652
